Results from patent publication US20170184604A1, “DD1ALPHA RECEPTOR AND USES THEREOF IN IMMUNE DISORDERS” (THE GENERAL HOSPITAL CORPORATION, priority 2014, published 2017).
Results are given in words; binding and its absence hold for the method and conditions named. In cells and extracts the contact can be indirect. Some binding calls cover weakened binding; strength is not graded here. For part of these data: Where a sequence is shown, tags or fusion partners need not be part of it.

Chains of the proteins cited; added tags and fusions are not shown. Lines headed by an entry give the natural chain unless they say otherwise; changes in a name come on top.
UniProt Q15116: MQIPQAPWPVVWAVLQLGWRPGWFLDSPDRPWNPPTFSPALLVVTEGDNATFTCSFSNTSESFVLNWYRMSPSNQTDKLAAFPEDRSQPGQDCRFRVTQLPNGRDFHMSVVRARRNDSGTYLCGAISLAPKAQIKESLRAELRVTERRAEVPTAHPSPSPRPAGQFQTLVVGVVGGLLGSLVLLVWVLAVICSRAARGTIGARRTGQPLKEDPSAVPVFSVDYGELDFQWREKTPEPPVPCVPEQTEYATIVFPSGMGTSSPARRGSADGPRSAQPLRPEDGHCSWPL

Tests used:
[1] = molecular target: PD-1 (co-immunoprecipitation of FIG. 31) (Homo sapiens (Human)) (UniProt Q15116); assay: co-immunoprecipitation
[2] = molecular target: endogenous PD-1 in lysates of Nutlin-3-treated MCF7 cells (human) (UniProt Q15116); assay: Ig pull-down from lysates of Nutlin-3-treated MCF7 cells, western blot
[3] = molecular target: endogenous DD1α receptor in lysates of Nutlin-3-treated MCF7 cells (human) (UniProt Q9H7M9); assay: Ig fusion protein pull-down from lysates of Nutlin-3-treated MCF7 cells, western blot
[4] = molecular target: endogenous PD-1 in lysates of Nutlin-3-treated MCF7 cells (human) (UniProt Q15116); assay: as above
DD1α-HA (human) [5] = molecular target: DD1α-HA (human) (UniProt Q9H7M9); assay: Ig pull-down from lysates of transfected HEK293T cells, anti-HA western blot (FIG. 6C)
PD1-HA (human) [6] = molecular target: PD1-HA (human) (UniProt Q15116); assay: as above
DD1α-HA (human) [7] = molecular target: DD1α-HA (human) (UniProt Q9H7M9); assay: Ig fusion protein pull-down from lysates of transfected 293T cells, anti-HA western blot
PD1-HA (human) [8] = molecular target: PD1-HA (human) (UniProt Q15116); assay: as above
[9] = molecular target: endogenous DD1α receptor in lysates of Nutlin-3-treated MCF7 cells (human) (UniProt Q9H7M9); assay: Ig pull-down from lysates of Nutlin-3-treated MCF7 cells, western blot
His-DD1α (33-194) = molecular target: T1, His-DD1α (33-194) (human, UniProt Q9H7M9 33-194); assay: in vitro GST pull-down, anti-His immunoblot
T1 construct: not shown: His tag of the pRSET vector (Invitrogen)

Measured: binding

DD1α (co-immunoprecipitation of FIG. 31) (from UniProt Q9H7M9 33-311) (receptor)
binds: [1]

DD1α-Ig fusion protein (the extracellular region of DD1α fused with the immunoglobulin G Fc segment) (from UniProt Q9H7M9 33-194) (Fc fusion)
not listed: [1] | [9] | His-DD1α (33-194)
binds: all other assays above

PD-1-Ig (recombinant human PD-1-Ig, R&D Systems) (from UniProt Q15116 25-167) (Fc fusion)
binds: [9] | [3] | DD1α-HA (human) [7]

B1: GST-DD1α (37-146), the immunoglobulin domain (protein, not shown: a dimerising Fc or GST; small tags and cut ends)
chain: TPYSLYVCPEGQNVTLTCRLLGPVDKGHDVTFYKTWYRSSRGEVQTCSERRPIRNLTFQDLHLHHGGHQAANTSHDLAQRHGLESASDHHGNFSITMRNLTLLDSGLYCC
binds: His-DD1α (33-194)
